Results are given in words; binding and its absence hold for the method and conditions named. Binding seen in cells or lysates may run through a third protein. Binding can be weak; no strength is given.
B1: major outer membrane protein (MOMP) of C. jejuni CAMSA2147 (protein, UniProt P80672 23-424)
chain: TPLEEAIKDVDVSGVLRYRYDTGNFDKNFVNNSNLNNSKQDHKYRAQVNFSAAIADNFKAFVQFDYNAADGGYGANGIKNDQKGLFVRQLYLTYTNEDVATSVIAGKQQLNLIWTDNAIDGLVGTGVKVVNNSIDGLTLAAFAVDSFMAAEQGADLLEHSNISTTSNQAPFKVDSVGNLYGAAAVGSYDLAGGQFNPQLWLAYWDQVAFFYAVDAAYSTTIFDGINWTLEGAYLGNSLDSELDDKTHANGNLFALKGSIEVNGWDASLGGLYYGDKEKASTVVIEDQGNLGSLLAGEEIFYTTGSRLNGDTGRNIFGYVTGGYTFNETVRVGADFVYGGTKTEAANHLGGGKKLEAVARVDYKYSPKLNFSAFYSYVNLDQGVNTNESADHSTVRLQALYKF
B2: major outer membrane protein (MOMP) of C. jejuni RM1221 (protein, UniProt P80672 23-424)
chain: B1 chain

Key:
[1] = target: CAMSA2147 CJIE1 prophage H-fiber C-terminal domain (tail fiber protein H) (Campylobacter jejuni CAMSA2147 (CJIE1 prophage)); assay: pull-down; Pierce His Protein Interaction Pull-Down Kit; 200 ug purified His-tagged H-fiber (co-expressed with the chaperone) immobilised on cobalt chelate resin as bait; C. jejuni CAMSA2147 or RM1221 cell lysate as prey; eluate run on SDS-PAGE and the band identified by LC-MS; only the target purified
[2] = target: RM1221 CJIE1 prophage H-fiber C-terminal domain (tail fiber protein H, CJE0231) (Campylobacter jejuni RM1221 (CJIE1 prophage)); assay: as above

Binder	binding [1]	binding [2]
B1	binds	no binding
B2	–	binds
